# Reference: article PMC11317144
# Protein sequences, listed by entry. Tags and fused reporters are not part of them. Lines headed by an entry give the natural chain unless they say otherwise; changes in a name come on top. Residues count along the entry.
# UniProt P56524: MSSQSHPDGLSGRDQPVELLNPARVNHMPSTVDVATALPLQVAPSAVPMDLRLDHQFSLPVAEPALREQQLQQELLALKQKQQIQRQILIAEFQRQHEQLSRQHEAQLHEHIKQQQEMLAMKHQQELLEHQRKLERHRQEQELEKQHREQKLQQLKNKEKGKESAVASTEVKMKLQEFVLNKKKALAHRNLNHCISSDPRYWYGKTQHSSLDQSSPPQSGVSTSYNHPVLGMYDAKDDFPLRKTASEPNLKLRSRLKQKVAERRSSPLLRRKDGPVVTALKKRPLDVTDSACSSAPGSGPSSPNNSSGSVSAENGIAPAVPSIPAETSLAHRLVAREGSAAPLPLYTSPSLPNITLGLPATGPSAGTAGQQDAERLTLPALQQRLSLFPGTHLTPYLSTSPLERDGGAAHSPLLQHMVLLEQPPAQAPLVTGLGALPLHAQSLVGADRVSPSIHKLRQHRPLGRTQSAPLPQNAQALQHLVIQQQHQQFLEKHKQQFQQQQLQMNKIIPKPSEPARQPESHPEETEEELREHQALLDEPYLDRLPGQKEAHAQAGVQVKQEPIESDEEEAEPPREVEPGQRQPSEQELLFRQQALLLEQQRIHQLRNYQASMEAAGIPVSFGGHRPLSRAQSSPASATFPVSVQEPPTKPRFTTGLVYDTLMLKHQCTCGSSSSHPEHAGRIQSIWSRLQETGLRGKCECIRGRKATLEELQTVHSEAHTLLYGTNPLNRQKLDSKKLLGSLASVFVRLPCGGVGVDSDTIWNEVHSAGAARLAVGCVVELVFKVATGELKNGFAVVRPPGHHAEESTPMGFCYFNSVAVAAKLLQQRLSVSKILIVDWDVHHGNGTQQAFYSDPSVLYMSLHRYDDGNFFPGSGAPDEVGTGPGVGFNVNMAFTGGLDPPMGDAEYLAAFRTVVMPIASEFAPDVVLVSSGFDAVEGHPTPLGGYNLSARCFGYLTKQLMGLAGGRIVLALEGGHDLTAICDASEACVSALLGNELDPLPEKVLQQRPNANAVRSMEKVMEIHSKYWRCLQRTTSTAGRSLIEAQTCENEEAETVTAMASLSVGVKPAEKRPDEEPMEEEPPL
# HDAC4-FLAG deletion mutant, amino-terminal region (aa 1-289) (human (by the printed RefSeq NM_006037)): residues 1-289 of P56524
# UniProt Q92769: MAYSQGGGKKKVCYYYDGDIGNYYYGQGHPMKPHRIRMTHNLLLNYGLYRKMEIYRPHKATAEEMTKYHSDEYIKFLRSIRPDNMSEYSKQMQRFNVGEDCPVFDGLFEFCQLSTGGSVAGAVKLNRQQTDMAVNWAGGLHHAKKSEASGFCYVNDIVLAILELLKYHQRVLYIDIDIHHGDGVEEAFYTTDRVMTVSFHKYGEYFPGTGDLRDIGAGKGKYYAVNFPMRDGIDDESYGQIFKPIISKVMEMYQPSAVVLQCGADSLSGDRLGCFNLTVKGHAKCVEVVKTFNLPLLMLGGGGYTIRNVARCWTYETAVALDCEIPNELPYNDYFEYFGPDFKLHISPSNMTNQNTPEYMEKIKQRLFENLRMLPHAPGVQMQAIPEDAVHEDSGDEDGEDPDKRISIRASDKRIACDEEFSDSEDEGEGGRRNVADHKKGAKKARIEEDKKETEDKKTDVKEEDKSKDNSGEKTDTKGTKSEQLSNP
# UniProt Q14814: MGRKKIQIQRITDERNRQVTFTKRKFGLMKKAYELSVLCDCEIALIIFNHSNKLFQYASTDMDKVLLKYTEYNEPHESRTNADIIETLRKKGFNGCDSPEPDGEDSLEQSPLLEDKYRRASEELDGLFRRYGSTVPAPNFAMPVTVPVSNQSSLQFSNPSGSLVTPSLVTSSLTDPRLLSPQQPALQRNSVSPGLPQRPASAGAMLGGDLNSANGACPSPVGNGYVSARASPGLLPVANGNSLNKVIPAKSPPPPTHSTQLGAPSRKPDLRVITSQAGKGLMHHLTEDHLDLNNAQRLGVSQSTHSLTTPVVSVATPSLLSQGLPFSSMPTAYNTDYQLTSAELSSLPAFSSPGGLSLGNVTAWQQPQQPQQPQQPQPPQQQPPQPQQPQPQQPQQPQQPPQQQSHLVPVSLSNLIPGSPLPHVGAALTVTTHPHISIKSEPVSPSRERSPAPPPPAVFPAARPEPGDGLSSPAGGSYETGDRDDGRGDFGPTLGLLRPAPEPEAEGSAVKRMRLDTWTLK
# GST-MEF2D (1-190): residues 1-190 of Q14814
# UniProt O15379: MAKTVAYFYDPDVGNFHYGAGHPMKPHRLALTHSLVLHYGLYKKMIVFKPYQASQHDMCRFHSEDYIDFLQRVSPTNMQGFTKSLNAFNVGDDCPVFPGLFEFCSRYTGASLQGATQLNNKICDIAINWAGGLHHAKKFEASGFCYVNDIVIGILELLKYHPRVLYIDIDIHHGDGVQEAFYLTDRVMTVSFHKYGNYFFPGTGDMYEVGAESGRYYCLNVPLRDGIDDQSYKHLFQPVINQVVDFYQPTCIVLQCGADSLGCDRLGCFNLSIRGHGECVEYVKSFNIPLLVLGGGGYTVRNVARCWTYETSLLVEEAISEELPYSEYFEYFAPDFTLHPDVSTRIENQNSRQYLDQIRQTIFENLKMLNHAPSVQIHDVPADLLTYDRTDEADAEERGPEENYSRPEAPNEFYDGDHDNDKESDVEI
# UniProt Q5VTR2: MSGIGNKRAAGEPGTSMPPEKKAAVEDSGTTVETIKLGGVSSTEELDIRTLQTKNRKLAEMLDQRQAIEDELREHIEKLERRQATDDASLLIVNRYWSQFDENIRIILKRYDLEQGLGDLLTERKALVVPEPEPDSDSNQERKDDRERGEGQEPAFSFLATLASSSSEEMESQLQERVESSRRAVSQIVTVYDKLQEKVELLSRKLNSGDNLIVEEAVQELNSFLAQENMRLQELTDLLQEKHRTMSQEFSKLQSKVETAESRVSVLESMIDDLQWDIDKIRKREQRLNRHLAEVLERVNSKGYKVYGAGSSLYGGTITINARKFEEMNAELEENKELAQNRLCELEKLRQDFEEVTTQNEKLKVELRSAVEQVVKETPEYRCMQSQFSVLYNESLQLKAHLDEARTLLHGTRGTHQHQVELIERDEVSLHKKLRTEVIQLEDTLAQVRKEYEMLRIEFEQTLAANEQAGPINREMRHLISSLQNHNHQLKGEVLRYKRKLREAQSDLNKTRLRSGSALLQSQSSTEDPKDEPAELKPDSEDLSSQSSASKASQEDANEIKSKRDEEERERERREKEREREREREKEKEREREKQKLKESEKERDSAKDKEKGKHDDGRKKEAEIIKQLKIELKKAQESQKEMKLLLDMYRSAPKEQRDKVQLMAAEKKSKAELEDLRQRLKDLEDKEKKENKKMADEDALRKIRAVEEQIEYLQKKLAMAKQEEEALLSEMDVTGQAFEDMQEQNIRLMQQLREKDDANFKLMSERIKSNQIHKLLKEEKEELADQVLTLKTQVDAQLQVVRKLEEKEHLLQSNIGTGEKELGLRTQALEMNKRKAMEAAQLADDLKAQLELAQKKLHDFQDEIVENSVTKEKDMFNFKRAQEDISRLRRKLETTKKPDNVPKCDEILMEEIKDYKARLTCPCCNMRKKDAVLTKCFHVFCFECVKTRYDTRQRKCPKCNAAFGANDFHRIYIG
# Results are given in words; binding and its absence hold for the method and conditions named. For some assays here: Binding seen in cells or lysates may run through a third protein. Some results given as binding are weak or reduced against the parent protein; the word gives no strength.
# Legend:
# [1] = molecular target: endogenous GFP-tagged HDAC4 (PITCh knock-in) (human (endogenous in SK-LMS-1)) (UniProt P56524); assay: co-IP; native lysates of SK-LMS-1 HDAC4-GFP knock-in cells, treated or not with etoposide (60 min) or APH (4 h), immunoprecipitated with 1 μg anti-HDAC4 antibody; hypotonic lysis buffer (Figure 6G)
# [2] = molecular target: HDAC4-FLAG (full-length) (human (by the printed RefSeq NM_006037)) (UniProt P56524); assay: pull-down; HDAC4-FLAG purified from 293 cells incubated with GFP, MEF2D-GFP or HDAC2-GFP purified from retrovirally transduced Ampho cells (Figure 6D); the text calls it Co-IP; both purified
# [3] = molecular target: HDAC4-FLAG deletion mutant, amino-terminal region (aa 1-289) (human (by the printed RefSeq NM_006037)) (UniProt P56524); assay: co-IP; 293 cells co-transfected with HDAC2-HA and full-length or deletion mutants of HDAC4-FLAG; immunoprecipitation with 1 μg anti-FLAG antibody (Figure 6E)
# [4] = molecular target: GST-HDAC2 (SRP5266, Merck) (UniProt Q92769); assay: pull-down; 2 μg GST, GST-MEF2D (1-190) or GST-HDAC2 as baits on GST-Sepharose 4B beads; HDAC4 as prey from SK-LMS-1 lysate (hypertonic lysis buffer, 300 mM NaCl), cells treated or not for 60 min with etoposide; 4°C, 2 h (Figure 6F); only the target purified
# GST-MEF2D (1-190) = GST-MEF2D (1-190) (UniProt Q14814); assay: as above
substance,measurement,setting,value
"HDAC2 (endogenous, SK-LMS-1) (from UniProt Q92769 1-488)",binding,[1],binds
HDAC2-GFP (from UniProt Q92769 1-488),binding,[2],binds
HDAC2-HA (from UniProt Q92769 1-488),binding,[3],binds
"HDAC3 (endogenous, SK-LMS-1) (from UniProt O15379 1-428)",binding,[1],binds
"HDAC4 (endogenous, SK-LMS-1) (from UniProt P56524-1 1-1084)",binding,[4],binds
same,binding,GST-MEF2D (1-190),binds
MEF2D-GFP (from UniProt Q14814 1-521),binding,[2],binds
"RNF20, the E3 ligase for H2BK120ub (endogenous, SK-LMS-1) (from UniProt Q5VTR2 1-975)",binding,[1],binds
